Reference: patent publication US20200165345A1
Results are given in words; binding and its absence hold for the method and conditions named. Some entries that bind do so weakly or less than the wild type.

B1: 1G11 (antibody, V domains shown)
VH: QVQLQQSGDDLVKPGASVKLSCKASGYTFTSYYINWIKQRPGQGLECIGRIAPGNTYYNEIFKGKAILTVDTSSSTAYIQLSSLSSEDSGVYFCARRGYEGALDYWGQGTSVTVSS
VL: DIVLTQSPATLSVTPGDSVSLSCRASQRISNNLHWYQQKSHESPRLLIKYVSQSISGIPSRFSGSGSGTDFTLSINSVETEDFGMYFCQQSNSWPLTFGAGTKLELKR
B2: Humanised 1G11 (antibody, human IgG1, kappa, V domains shown)
VH: QVQLVQSGAEVKKPGSSVKVSCKASGYTFTSYYINWVRQAPGQGLESMGRIAPGNTYYNEIFKGRVTITADKSTSTAYMELSSLRSEDTAVYYCARRGYEGALDYWGQGTLVTVSS
VL: EIVLTQSPATLSLSPGERATLSCRASQRISNNLHWYQQKPGQAPRLLIKYVSQSISGIPARFSGSGSGTDFTLTISSLEPEDFAVYYCQQSNSWPLTFGQGTKLEIKR

Tests used:
[1] = target: cynomolgus TrkB receptor (cynomolgus); assay: recombinant TrkB in heterologous cell line, primary cells or human iPSC derived cells; binding method not detailed
[2] = target: cynomolgus TrkB receptor (cynomolgus); assay: method not detailed

Binder | binding [1] | binding [2]
B1 | binds | –
B2 | – | binds
